No constants are given. Whether binding was seen depends on the method and setting. In cells and extracts the contact can be indirect. Some entries that bind do so weakly or less than the wild type. Sequences can lack the tags named with a protein.
Target: mCherry-SMN^WT expressed in HeLa cells (human) (UniProt Q16637)
Experiment: FRET or BRET

Chains of the proteins cited; added tags and fusions are not shown.
UniProt Q16637: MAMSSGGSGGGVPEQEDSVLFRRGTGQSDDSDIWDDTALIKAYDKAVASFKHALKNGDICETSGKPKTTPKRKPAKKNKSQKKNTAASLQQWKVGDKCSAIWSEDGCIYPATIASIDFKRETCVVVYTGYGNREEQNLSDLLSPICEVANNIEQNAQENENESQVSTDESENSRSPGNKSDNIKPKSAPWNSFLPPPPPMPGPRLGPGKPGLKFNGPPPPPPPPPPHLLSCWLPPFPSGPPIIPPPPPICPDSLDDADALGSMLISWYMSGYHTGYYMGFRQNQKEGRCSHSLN

B1: GAR1-EGFP expressed in HeLa cells (protein, UniProt Q9NY12 1-217)
chain: MSFRGGGRGGFNRGGGGGGFNRGGSSNHFRGGGGGGGGGNFRGGGRGGFGRGGGRGGFNKGQDQGPPERVVLLGEFLHPCEDDIVCKCTTDENKVPYFNAPVYLENKEQIGKVDEIFGQLRDFYFSVKLSENMKASSFKKLQKFYIDPYKLLPLQRFLPRPPGEKGPPRGGGRGGRGGGRGGGGRGGGRGGGFRGGRGGGGGGFRGGRGGGFRGRGH
binding: binds

Source: publication doi:10.1101/2025.01.30.635772
